Measured values published in US12275985B2, “Redox labeled oligonucleotide probes and their use” (ABBOTT DIAGNOSTICS SCARBOROUGH, INC., priority 2016, dated 2025).

Experiments:
[1] = test system: InfA[PA] and InfB[PA] DNA; experiment: Duplexed RPA detection with 1:1 mixture of MB- and PZ9-labelled probes on HeartCheck sensor; set-up: species or system Influenza A and Influenza B; settings: duplexed detection at 15 min, 10^7 copies of each target; for Imax of calculated Gaussian curve: third order polynomial baseline correction
InfB[PA] DNA = experiment: Electrochemical read-out of RPA with redox-labelled Fpg probes, positive reactions vs NTC; set-up: species or system Influenza B; settings: InfB[PA] Fpg probe mono-labelled

SMILES | σ of calculated Gaussian curve [1] | Imax of calculated Gaussian curve [1] [nA] | peak current values relative to other labels (InfB[PA] DNA)
CN(C)c1ccc2nc3ccc(N(C)C)cc3[s+]c2c1.[Cl-] [Methylene Blue, 3,7-bis(Dimethylamino)-phenothiazin-5-ium chloride] | 0.0311 | 301.5 | –
CC/[N+](CCCS(=O)(=O)[O-])=c1/ccc2nc3ccc(N(C)CCC(=O)O)cc3oc-2c1 [PO2, N-(3-(N-methyl(2-carboxyethyl)amino)phenoxazin-7-ylidene)-N-ethyl(3-sulfonatopropyl)aminium chloride] | – | – | approximately equal to those for PO1; also recorded: lower than peak currents obtained with MB
CN(CCCC(=O)O)c1ccc2nc3ccc(N(C)c4ccccc4)cc3[s+]c2c1.[Cl-] [PZ9] | 0.0243 | 194 | –

“Also recorded” adds a separate entry of the source.
